According to PMC7775746:
No constants are given. Whether binding was seen depends on the method and setting. In cells and extracts the contact can be indirect. Some results given as binding are weak or reduced against the parent protein; the word gives no strength. Sequences can lack the tags named with a protein.

Protein sequences, listed by entry. Tags and fused reporters are not part of them.
UniProt O95863: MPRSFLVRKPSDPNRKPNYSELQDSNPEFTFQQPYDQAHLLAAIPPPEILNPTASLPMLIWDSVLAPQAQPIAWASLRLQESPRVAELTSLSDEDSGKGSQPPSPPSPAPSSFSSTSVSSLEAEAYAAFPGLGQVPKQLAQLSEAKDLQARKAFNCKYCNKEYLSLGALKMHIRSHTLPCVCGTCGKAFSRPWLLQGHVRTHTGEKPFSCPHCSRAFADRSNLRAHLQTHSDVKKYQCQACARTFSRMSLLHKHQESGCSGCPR
UniProt P01100: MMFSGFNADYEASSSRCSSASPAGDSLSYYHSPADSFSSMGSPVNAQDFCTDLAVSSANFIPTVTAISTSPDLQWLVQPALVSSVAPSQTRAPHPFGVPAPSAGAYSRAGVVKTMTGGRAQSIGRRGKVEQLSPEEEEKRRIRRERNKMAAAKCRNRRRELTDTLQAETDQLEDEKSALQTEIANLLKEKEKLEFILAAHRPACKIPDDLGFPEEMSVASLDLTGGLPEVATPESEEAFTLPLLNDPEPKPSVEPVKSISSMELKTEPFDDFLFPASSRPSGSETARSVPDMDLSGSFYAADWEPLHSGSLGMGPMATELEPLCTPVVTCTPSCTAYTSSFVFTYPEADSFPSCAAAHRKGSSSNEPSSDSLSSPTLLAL
UniProt P40763: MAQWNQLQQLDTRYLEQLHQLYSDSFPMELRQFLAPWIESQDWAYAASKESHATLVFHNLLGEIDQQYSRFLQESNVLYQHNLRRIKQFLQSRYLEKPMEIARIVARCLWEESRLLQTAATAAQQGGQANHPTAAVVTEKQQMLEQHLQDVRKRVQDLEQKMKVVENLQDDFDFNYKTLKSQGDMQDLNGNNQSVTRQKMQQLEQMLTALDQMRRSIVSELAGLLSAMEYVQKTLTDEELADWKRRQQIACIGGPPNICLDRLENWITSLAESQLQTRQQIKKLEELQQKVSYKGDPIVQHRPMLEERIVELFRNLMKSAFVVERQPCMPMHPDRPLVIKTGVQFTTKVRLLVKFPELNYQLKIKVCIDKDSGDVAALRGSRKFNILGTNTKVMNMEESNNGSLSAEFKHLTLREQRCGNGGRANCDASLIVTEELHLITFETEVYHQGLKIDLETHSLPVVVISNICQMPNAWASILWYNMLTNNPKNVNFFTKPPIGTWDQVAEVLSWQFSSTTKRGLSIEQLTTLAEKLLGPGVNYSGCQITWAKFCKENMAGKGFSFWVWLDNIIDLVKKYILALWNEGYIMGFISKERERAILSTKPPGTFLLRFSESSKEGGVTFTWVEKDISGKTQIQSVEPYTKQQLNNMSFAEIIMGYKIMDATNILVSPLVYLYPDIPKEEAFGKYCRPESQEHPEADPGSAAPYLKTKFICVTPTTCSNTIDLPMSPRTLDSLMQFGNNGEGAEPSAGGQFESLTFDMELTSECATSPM

T1: S100A9-Flag (human (cDNA from MCF-10A–ER-Src cells)) (UniProt P06702)
T1 sequence: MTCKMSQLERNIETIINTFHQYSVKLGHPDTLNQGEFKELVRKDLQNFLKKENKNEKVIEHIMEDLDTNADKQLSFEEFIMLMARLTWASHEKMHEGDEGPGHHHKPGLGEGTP


The molecules below were run against T1, S100A9-Flag (human (cDNA from MCF-10A–ER-Src cells)) (assay: co-IP; Flag-tagged protein immunoprecipitated from nuclear extract of MCF-10A–ER-Src cells treated with EtOH or TAM; extract made in 420 mM NaCl buffer C, diluted to 100 mM NaCl, 0.4% NP-40, treated overnight with Benzonase (nucleic acids degraded); Western blot).

| Molecule | binding |
| --- | --- |
| SNAI1 (from UniProt O95863 1-264) | no binding |
| CTCF (protein, UniProt P49711 1-727) MEGDAVEAIVEESETFIKGKERKTYQRRREGGQEEDACHLPQNQTDGGEVVQDVNSSVQMVMMEQLDPTLLQMKTEVMEGTVAPEAEAAVDDTQIITLQVVNMEEQPINIGELQLVQVPVPVTVPVATTSVEELQGAYENEVSKEGLAESEPMICHTLPLPEGFQVVKVGANGEVETLEQGELPPQEDPSWQKDPDYQPPAKKTKKTKKSKLRYTEEGKDVDVSVYDFEEEQQEGLLSEVNAEKVVGNMKPPKPTKIKKKGVKKTFQCELCSYTCPRRSNLDRHMKSHTDERPHKCHLCGRAFRTVTLLRNHLNTHTGTRPHKCPDCDMAFVTSGELVRHRRYKHTHEKPFKCSMCDYASVEVSKLKRHIRSHTGERPFQCSLCSYASRDTYKLKRHMRTHSGEKPYECYICHARFTQSGTMKMHILQKHTENVAKFHCPHCDTVIARKSDLGVHLRKQHSYIEQGKKCRYCDAVFHERYALIQHQKSHKNEKRFKCDQCDYACRQERHMIMHKRTHTGEKPYACSHCDKTFRQKQLLDMHFKRYHDPNFVPAAFVCSKCGKTFTRRNTMARHADNCAGPDGVEGENGGETKKSKRGRKRKMRSKKEDSSDSENAEPDLDDNEDEEEPAVEIEPEPEPQPVTPAPPPAKKRRGRPPGRTNQPKQNQPTAIIQVEDQNTGAIENIIVEVKKEPDAEPAEGEEEEAQPAATDAPNGDLTPEMILSMMDR | binds |

Other lines, results leading:

| binding | Molecule |
| --- | --- |
| binds | FOS (from UniProt P01100 1-380) |
| binds | STAT3 (from UniProt P40763 1-770) |
